The target of experiment [1] is MYC-FLAG-tagged human MEIOB ΔC helix (human). The experiment in a line: co-IP.
Experiment [2] concerns the target MYC-FLAG-tagged full-length human MEIOB (human) (UniProt Q8N635). The experiment in a line: co-IP.
For experiment [3], the target named is GST-MEIOB (coexpressed with SPATA22 in insect cells) (UniProt Q8N635). The experiment is described as follows: pull-down.
The target is the same in experiment [4]. The experiment in a line: native gel or EMSA. On the technique in general: In EMSA bound probe runs differently from free probe, usually more slowly.

Protein sequences, listed by entry. Tags and fused reporters are not part of them. Lines headed by an entry give the natural chain unless they say otherwise; changes in a name come on top.
UniProt Q8N635: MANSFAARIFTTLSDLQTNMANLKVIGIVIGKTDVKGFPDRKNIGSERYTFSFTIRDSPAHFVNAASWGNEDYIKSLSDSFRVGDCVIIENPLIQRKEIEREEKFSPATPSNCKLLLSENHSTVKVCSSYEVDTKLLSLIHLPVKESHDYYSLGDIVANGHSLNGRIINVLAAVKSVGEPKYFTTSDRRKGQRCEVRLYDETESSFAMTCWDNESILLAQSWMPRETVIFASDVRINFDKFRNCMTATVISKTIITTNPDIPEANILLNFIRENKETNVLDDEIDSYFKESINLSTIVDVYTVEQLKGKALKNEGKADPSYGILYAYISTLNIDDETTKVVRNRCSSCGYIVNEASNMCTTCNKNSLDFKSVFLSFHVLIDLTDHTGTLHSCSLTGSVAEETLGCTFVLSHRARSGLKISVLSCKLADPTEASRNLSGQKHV

No constants are given. Whether binding was seen depends on the method and setting. Binding can be weak; no strength is given. Tags and fused reporters may be left off the sequences shown. For some of these results: In cells and extracts the contact can be indirect.

B1: 3xHA-tagged full-length human SPATA22 (protein, UniProt Q8NHS9 1-363)
chain: MKRSLNENSARSTAGCLPVPLFNQKKRNRQPLTSNPLKDDSGISTPSDNYDFPPLPTDWAWEAVNPELAPVMKTVDTGQIPHSVSRPLRSQDSVFNSIQSNTGRSQGGWSYRDGNKNTSLKTWNKNDFKPQCKRTNLVANDGKNSCPVSSGAQQQKQLRIPEPPNLSRNKETELLRQTHSSKISGCTMRGLDKNSALQTLKPNFQQNQYKKQMLDDIPEDNTLKETSLYQLQFKEKASSLRIISAVIESMKYWREHAQKTVLLFEVLAVLDSAVTPGPYYSKTFLMRDGKNTLPCVFYEIDRELPRLIRGRVHRCVGNYDQKKNIFQCVSVRPASVSEQKTFQAFVKIADVEMQYYINVMNET
B1: the binding entry in experiment [1] and in experiment [2] was “binds” each time.

B2: SPATA22 (coexpressed with GST-MEIOB in insect cells) (protein, UniProt Q8NHS9 1-363)
chain: MKRSLNENSARSTAGCLPVPLFNQKKRNRQPLTSNPLKDDSGISTPSDNYDFPPLPTDWAWEAVNPELAPVMKTVDTGQIPHSVSRPLRSQDSVFNSIQSNTGRSQGGWSYRDGNKNTSLKTWNKNDFKPQCKRTNLVANDGKNSCPVSSGAQQQKQLRIPEPPNLSRNKETELLRQTHSSKISGCTMRGLDKNSALQTLKPNFQQNQYKKQMLDDIPEDNTLKETSLYQLQFKEKASSLRIISAVIESMKYWREHAQKTVLLFEVLAVLDSAVTPGPYYSKTFLMRDGKNTLPCVFYEIDRELPRLIRGRVHRCVGNYDQKKNIFQCVSVRPASVSEQKTFQAFVKIADVEMQYYINVMNET
On to B2, for which the binding result in experiment [3] and in experiment [4] was “binds” in each case.

These data come from article doi:10.1101/358242.
